Taken from: PubChem BioAssay AID493246 (Drosophila RNAi Screening Center, 2011)
The deposit covers about 21,000 reagents; this is an unselected part of those that have a named target and a result. Over the whole deposit, 429 (2%) got an active call. 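Values are raw and not normalised between plates; calls rest on per-plate z-scores that were not deposited.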 A number with no mark means an inactive call. The numbers tell different reagents against one gene apart. A plus sign joins genes that one reagent is predicted to hit. Not stated in the record: the amount of reagent, the time to read-out.

Test: 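Genome-wide search for dsRNAs that reduce cell number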 (primary screen)
Cell system: Drosophila Kc and S2R+ cells
Knock-down reagent: long dsRNA against Drosophila genes
Measured: 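Raw, unnormalised count of remaining cells in each well; per-plate z-scores of cell number underlie the calls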
Scale: Kc cell number and S2R+ cell number: higher = more cells remaining
Hit rule: 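Active when the per-plate z-score of cell number is 3 or more in the direction of fewer cells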

The opening 2 entries, to show the layout:
predicted target	reagent	Kc cell number, rep 1	Kc cell number, rep 2	S2R+ cell number, rep 1	S2R+ cell number, rep 2
CG8668	1	1.26e6	1.43e6	4.89e5	6.21e5
Ptx1	1	1.53e6	1.56e6	1.03e6	1.19e6

The list itself, from the start:
predicted target	reagent	Kc cell number, rep 1	Kc cell number, rep 2	S2R+ cell number, rep 1	S2R+ cell number, rep 2
CG8668	1	1.26e6	1.43e6	4.89e5	6.21e5
Ptx1	1	1.53e6	1.56e6	1.03e6	1.19e6
CG12105	1	1.40e6	1.46e6	1.25e6	1.20e6
CG14453	1	1.38e6	1.35e6	1.03e6	1.11e6
emp	1	1.42e6	1.60e6	9.85e5	1.12e6
emp	2	1.38e6	1.46e6	1.06e6	1.12e6
Trs20	1	1.30e6	1.40e6	1.19e6	1.33e6
CG17195	1	1.60e6	1.54e6	9.61e5	1.10e6
ATbp	1	1.52e6	1.61e6	9.91e5	1.15e6
Fbxl7	1	1.21e6	1.24e6	1.21e6	1.34e6
CG14414	1	1.59e6	1.59e6	1.17e6	1.22e6
CG13676	1	1.74e6	1.66e6	9.69e5	1.10e6
form3	1	1.58e6	1.29e6	1.25e6	1.21e6
form3	2	1.31e6	1.38e6	1.27e6	1.16e6
form3	3	1.37e6	1.51e6	1.15e6	1.26e6
CG32536 + CG32537	1	1.37e6	1.33e6	9.83e5	1.19e6
Muc18B	1	1.50e6	1.49e6	1.05e6	1.13e6
CG33298	1	1.47e6	1.52e6	1.20e6	1.38e6
CG33298	2	1.45e6	1.56e6	1.03e6	1.05e6
croc	1	1.41e6	1.42e6	1.29e6	1.37e6
CG5568	1	1.40e6	1.44e6	1.07e6	1.13e6
CG31404	1	1.35e6	1.32e6	1.05e6	1.10e6
Aptx	1	1.43e6	1.44e6	1.08e6	1.20e6
CG11529	1	1.44e6	1.34e6	1.14e6	1.22e6
lds	1	1.46e6	1.48e6	1.24e6	1.35e6
CG11771	1	1.54e6	1.57e6	1.28e6	1.37e6
Gclc	1	1.50e6	1.50e6	1.05e6	1.21e6
Rab35	1	1.55e6	1.60e6	9.71e5	1.06e6
Prx6c	1	1.56e6	1.66e6	1.18e6	1.36e6
BI-1	1	1.27e6	1.35e6	1.23e6	1.17e6
CG8939	1	5.55e5		8.00e5	
ThrRS	1	1.35e6	1.41e6	1.11e6	1.16e6
Ir75c	1	1.28e6	1.33e6	1.21e6	1.36e6
CG31213	1	1.35e6	1.40e6	1.04e6	1.08e6
CG31213	2	1.36e6	1.41e6	9.97e5	8.33e5
Tbce	1	1.50e6	1.59e6	1.05e6	9.80e5
CG17571	1	5.20e5		7.74e5	
CG17571	2	1.48e6	1.54e6	1.24e6	2.96e5
Cyp4d2	1	5.36e5		8.46e5	
Obp56i	1	6.26e5		7.46e5	
CG15211	1	1.55e6	1.51e6	9.64e5	1.11e6
CG6244	1	1.40e6	1.56e6	1.22e6	1.33e6
Tsp66A + CG42661 + CG42660	1	1.52e6	1.34e6	1.14e6	1.23e6
ox	1	1.64e6	1.58e6	1.17e6	1.30e6
CG34396	1	1.66e6	1.69e6	1.17e6	4.41e5
CG34396	2	1.48e6	1.64e6	1.31e6	5.59e5
msi	1	8.41e5 (active)	8.39e5	9.67e5	1.07e6
CG3795	1	5.11e5		7.53e5	
CysRS-m	1	1.33e6	1.40e6	1.06e6	1.11e6
Frq2	1	1.45e6	1.44e6	1.03e6	1.15e6
CG11030	1	1.46e6	1.39e6	1.09e6	1.24e6
Abl	1	1.44e6	1.54e6	1.21e6	1.31e6
Sr-CII	1	1.49e6	1.60e6	1.16e6	1.31e6
CG33233	1	1.23e6	1.29e6	1.07e6	1.25e6
Timp	1	1.62e6	1.65e6	1.36e6	1.40e6
CG13135	1	1.51e6	1.50e6	1.12e6	1.21e6
CG18094	1	1.55e6	1.67e6	1.34e6	4.06e5
kmr	1	1.55e6	1.73e6	1.07e6	1.22e6
kmr	2	1.36e6	1.58e6	9.93e5	1.15e6
kmr	3	1.36e6	1.60e6	1.03e6	1.10e6
kmr	4	1.43e6	1.54e6	1.29e6	1.30e6
